From article PMC7862700
The entries are a selection whose mix differs from that of the whole data set. For part of these data: At the low end of the ranking the order means little. This is one part of the list. For part of these data: The exact form of the protein is not confirmed.

Chains of the proteins cited; added tags and fusions are not shown. Lines headed by an entry give the natural chain unless they say otherwise; changes in a name come on top.
UniProt Q00613: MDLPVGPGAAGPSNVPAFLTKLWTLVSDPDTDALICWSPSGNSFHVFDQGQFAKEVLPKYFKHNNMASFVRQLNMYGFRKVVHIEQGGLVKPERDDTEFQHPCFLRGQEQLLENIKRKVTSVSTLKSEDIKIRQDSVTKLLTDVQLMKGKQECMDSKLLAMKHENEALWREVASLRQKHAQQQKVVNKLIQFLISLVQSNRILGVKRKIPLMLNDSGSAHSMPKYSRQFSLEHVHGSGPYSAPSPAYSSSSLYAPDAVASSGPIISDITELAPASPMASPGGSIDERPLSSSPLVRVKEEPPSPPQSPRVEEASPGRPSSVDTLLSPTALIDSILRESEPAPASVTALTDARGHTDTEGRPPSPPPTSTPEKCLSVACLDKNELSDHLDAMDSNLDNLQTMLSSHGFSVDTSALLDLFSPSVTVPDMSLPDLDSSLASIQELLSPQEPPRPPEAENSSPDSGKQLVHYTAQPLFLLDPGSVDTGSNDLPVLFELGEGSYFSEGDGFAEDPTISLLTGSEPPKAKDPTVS

Assays:
HSF1 = HSF1 (UniProt Q00613); experiment: DAPPL (digital affinity profiling via proximity ligation, sequencing); settings: 10 mM Tris-HCl pH 7.5, 50 mM NaCl, 1 mM DTT, 4% glycerol, room temperature, 30 min; GST-TFs on glutathione beads, 16-mer random dsDNA library, 0.1% …; high values mean tight binding; double strand, one strand shown; scale: fold enrichment (6-mer frequency, TF over GST control)
ELF2 = molecular target: T1, ELF2 (UniProt Q15723); experiment: as above; settings: 10 mM Tris-HCl pH 7.5, 50 mM NaCl, 1 mM DTT, 4% glycerol, room temperature, 30 min; GST-TFs on glutathione beads, 16-mer random dsDNA library, 0.1% …; high values mean tight binding; double strand, one strand shown; scale: fold enrichment (6-mer frequency, TF over GST control)
T1 sequence: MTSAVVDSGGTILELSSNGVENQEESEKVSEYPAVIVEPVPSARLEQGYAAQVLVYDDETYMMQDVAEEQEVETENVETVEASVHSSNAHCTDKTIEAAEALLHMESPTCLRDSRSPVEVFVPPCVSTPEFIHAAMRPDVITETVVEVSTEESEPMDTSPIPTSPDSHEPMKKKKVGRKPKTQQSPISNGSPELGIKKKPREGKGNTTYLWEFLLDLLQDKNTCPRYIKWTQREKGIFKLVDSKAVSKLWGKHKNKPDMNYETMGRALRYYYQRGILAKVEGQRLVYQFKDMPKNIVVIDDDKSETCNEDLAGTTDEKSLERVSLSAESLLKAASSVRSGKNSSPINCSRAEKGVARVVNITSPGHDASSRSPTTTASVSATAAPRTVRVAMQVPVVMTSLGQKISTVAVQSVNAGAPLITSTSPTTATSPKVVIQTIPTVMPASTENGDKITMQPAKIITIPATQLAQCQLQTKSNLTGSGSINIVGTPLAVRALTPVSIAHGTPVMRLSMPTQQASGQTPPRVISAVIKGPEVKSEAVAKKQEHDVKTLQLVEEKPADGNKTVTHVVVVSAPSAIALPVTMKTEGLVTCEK

Row | Sequence | binding signal (HSF1) | binding signal (ELF2)
1 | GAGCAA | 0.748 | 0.725
2 | AGCAGG | 0.765 | 0.956
3 | CAGAGT | 0.593 | 0.614
4 | GCATGC | 0.816 | 0.836
5 | CGTGCG | 0.585 | 0.652
6 | TAGGAC | 0.877 | 0.839
